No constants are given. Whether binding was seen depends on the method and setting. Binding seen in cells or lysates may run through a third protein. Binding calls can cover weak binding; strength is not graded here.
Target: T1, USH1G protein SANS (scaffold protein containing ankyrin repeats and SAM domain) (UniProt Q495M9)
T1 sequence: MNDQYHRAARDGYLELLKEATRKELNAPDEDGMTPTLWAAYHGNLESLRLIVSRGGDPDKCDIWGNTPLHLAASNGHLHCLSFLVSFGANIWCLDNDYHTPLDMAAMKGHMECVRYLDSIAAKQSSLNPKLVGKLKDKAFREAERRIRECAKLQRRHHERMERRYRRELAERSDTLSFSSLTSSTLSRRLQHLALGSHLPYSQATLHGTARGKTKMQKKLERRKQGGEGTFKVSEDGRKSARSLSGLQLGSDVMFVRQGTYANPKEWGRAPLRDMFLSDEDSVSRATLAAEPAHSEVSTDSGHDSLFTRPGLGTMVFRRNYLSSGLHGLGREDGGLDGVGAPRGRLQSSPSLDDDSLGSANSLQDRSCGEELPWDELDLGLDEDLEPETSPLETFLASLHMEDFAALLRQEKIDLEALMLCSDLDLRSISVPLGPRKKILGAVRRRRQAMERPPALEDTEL
Test: pull-down; GST pull-down; which partner carried GST is not told

binding: binds
Substance: cytoplasmic dynein intermediate chain (cDIC74)
